From the supplement of paper PMC9233669
Variants at the floor of the assay are shown more often than the library holds them.

Columns and labels:
biotinyl-Val-oxazolone = test: self-aminoacylation, catalytic enhancement (BVO) (fold over background); higher = more active; k-Seq, kA / k0A0; sequences stand for … in GGGAAUGGAUCCACAUCUACGAAUUC…UUCACUGCAGACUUGACGAAGCUG
In short: (§1)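 Mutagenized RNA pools (0.43 μM; 21-nt variable region) were treated with 2–1250 μM of each biotinyl-aminoacyl-oxazolone. Conditions were 50 μL HEPES/NaCl/KCl/MgCl2/CaCl2 buffer, 5% acetonitrile, pH 6.9–7.0, room temperature, 90 minutes. Catalytic enhancement, the median kA relative to the uncatalyzed rate, was derived from streptavidin capture, qPCR and Illumina sequencing.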

biotinyl-Trp-oxazolone = test: self-aminoacylation, catalytic enhancement (BWO) (fold over background); higher = more active; k-Seq, kA / k0A0; sequences stand for … in GGGAAUGGAUCCACAUCUACGAAUUC…UUCACUGCAGACUUGACGAAGCUG
In short: as §1

biotinyl-Ile-oxazolone = test: self-aminoacylation, catalytic enhancement (BIO) (fold over background); higher = more active; k-Seq, kA / k0A0; sequences stand for … in GGGAAUGGAUCCACAUCUACGAAUUC…UUCACUGCAGACUUGACGAAGCUG
In short: as §1

biotinyl-Met-oxazolone = test: self-aminoacylation, catalytic enhancement (BMO) (fold over background); higher = more active; k-Seq, kA / k0A0; sequences stand for … in GGGAAUGGAUCCACAUCUACGAAUUC…UUCACUGCAGACUUGACGAAGCUG
In short: as §1

biotinyl-Leu-oxazolone = test: self-aminoacylation, catalytic enhancement (BLO) (fold over background); higher = more active; k-Seq, kA / k0A0; sequences stand for … in GGGAAUGGAUCCACAUCUACGAAUUC…UUCACUGCAGACUUGACGAAGCUG
In short: as §1

Row | Sequence | self-aminoacylation (biotinyl-Val-oxazolone) | self-aminoacylation (biotinyl-Trp-oxazolone) | self-aminoacylation (biotinyl-Ile-oxazolone) | self-aminoacylation (biotinyl-Met-oxazolone) | self-aminoacylation (biotinyl-Leu-oxazolone)
1 | CUACCUCAAACAAUCGGGCUG [Fam1A.1 aminoacylation ribozyme variant] | 1.93 | 1.74 | 1.29 | – | –
2 | AUUCACCUAGGACAUCGGGGG [Fam2.2 aminoacylation ribozyme variant] | – | 1.06 | 1.74 | – | –
3 | AUUCACCUCGGUCAUCGGGUC [Fam2.2 aminoacylation ribozyme variant] | – | 1.84 | 1.62 | 1.64 | –
4 | AUUCACCUAGGUCUUCGGGGG [Fam2.2 aminoacylation ribozyme variant] | – | 1.45 | – | – | –
5 | CCACACUUCAAGCAUUCGGUU [Fam1B.1 aminoacylation ribozyme variant] | – | 1.15 | – | – | –
6 | AUUCACCUGGGUCAUCGGCUG [Fam2.2 aminoacylation ribozyme variant] | – | 0.753 | – | 1.95 | –
7 | AUUCACCUAGGUCAACGGGCG [Fam2.2 aminoacylation ribozyme variant] | 1.97 | 1.73 | – | – | –
8 | AGGUUUGCUAAGAGUCGCAAG [Fam3.1 aminoacylation ribozyme variant] | 1.02 | – | 1.12 | 1.15 | 1.02
9 | CUUCUUCAAACAAUCGGUGUG [Fam1A.1 aminoacylation ribozyme variant] | 1.01 | – | 1.13 | 1.1 | 1.45
10 | CCACACUUCAAGUAAUCGGUC [Fam1B.1 aminoacylation ribozyme variant] | 0.928 | – | 0.885 | 0.813 | 1.05
11 | CGACUUCAAAUAAUCGGUCUG [Fam1A.1 aminoacylation ribozyme variant] | 0.979 | – | 1.34 | 1.14 | 1.6
12 | AUUCACCUCGGUCAGCGGGUG [Fam2.2 aminoacylation ribozyme variant] | 3.37 | – | 3.13 | 4.51 | 5.84
13 | AAUUUUGCUAAUAGUCGCAAG [Fam3.1 aminoacylation ribozyme variant] | 1.55 | – | 1.84 | 1.66 | 1.64
14 | UUACUUCAAAUAAUCGGUCUG [Fam1A.1 aminoacylation ribozyme variant] | 1.1 | – | 1.3 | 1.19 | 1.22
15 | ACGUUUGCUAAUAGUCGCGAG [Fam3.1 aminoacylation ribozyme variant] | – | 1.48 | – | 1.98 | –
16 | CGACACUACAAGCAAUCGGUC [Fam1B.1 aminoacylation ribozyme variant] | 1 | – | 0.935 | 0.769 | 0.755
17 | AUGCACCUAGGUCAUUGGGUG [Fam2.2 aminoacylation ribozyme variant] | 2.16 | – | 2.33 | 2.3 | 2.53
18 | AUACUUCAAACAAUCGGUCUG [Fam1A.1 aminoacylation ribozyme variant] | 0.914 | – | 0.933 | 0.939 | 1.1
19 | CUACGUCAAAAAAUCGGUCUG [Fam1A.1 aminoacylation ribozyme variant] | 1.36 | – | 1.53 | 1.66 | 1.51
20 | AAGUUUGUUAAUAGUCGCAAA [Fam3.1 aminoacylation ribozyme variant] | 1.32 | – | 1.8 | 1.63 | 1.68

Row | Sequence | self-aminoacylation (biotinyl-Val-oxazolone) | self-aminoacylation (biotinyl-Trp-oxazolone) | self-aminoacylation (biotinyl-Ile-oxazolone) | self-aminoacylation (biotinyl-Met-oxazolone) | self-aminoacylation (biotinyl-Leu-oxazolone)
21 | AAGUAUGCUAAUAGUCGCAAG [Fam3.1 aminoacylation ribozyme variant] | 1.42 | – | 1.67 | 1.72 | 1.38
22 | AUUUACCUAUGUCAUCGGGUG [Fam2.2 aminoacylation ribozyme variant] | 2.96 | – | 3.04 | 4.35 | 6.5
23 | AUUCCCCUGGUCUUCGAGUGA [Fam2.1 aminoacylation ribozyme variant] | 5.87 | – | 5.69 | 9.43 | 9.91
24 | CUUACCGUGGUCAUCGAGUGA [Fam2.1 aminoacylation ribozyme variant] | 2.68 | – | 1.83 | 3.29 | 2.59
25 | AAGUGUGCUAACAGUCGCAAG [Fam3.1 aminoacylation ribozyme variant] | 1.64 | – | 1.59 | 1.35 | 1.58
26 | CUACUGCAAACAAUCGGUCUC [Fam1A.1 aminoacylation ribozyme variant] | 0.885 | – | 0.855 | 0.916 | 0.716
27 | CCACACUUCAAGGAAUCGGUG [Fam1B.1 aminoacylation ribozyme variant] | 4.61 | – | 4.9 | 7.21 | 10.5
28 | ACUCACUUCAAGCAAUCGGUC [Fam1B.1 aminoacylation ribozyme variant] | 1.15 | – | 1.03 | 0.902 | 1.07
29 | AAGUCUGCUAAUAGUCGUAAG [Fam3.1 aminoacylation ribozyme variant] | 1.46 | – | 1.6 | 2.5 | 1.67
30 | AAUUUUGCUGAUAGUCGCAAG [Fam3.1 aminoacylation ribozyme variant] | 1.76 | – | 1.93 | 1.7 | 1.5
31 | CUAGUUCAAACAAUCGGUUUG [Fam1A.1 aminoacylation ribozyme variant] | 0.962 | – | 0.992 | 0.86 | 1.13
32 | CCAAACUUCAAGCAAUCAGUC [Fam1B.1 aminoacylation ribozyme variant] | 0.788 | – | 0.79 | 0.707 | 0.77
33 | CUCCUUCAAACAAUCGGUCUA [Fam1A.1 aminoacylation ribozyme variant] | 1.05 | – | 0.919 | 0.924 | 1.02
34 | CCACACUUCAAGUAAUCGGCC [Fam1B.1 aminoacylation ribozyme variant] | 1.68 | – | 1.59 | 1.62 | 1.83
35 | CGACUUCAAAAAAUCGGUCUG [Fam1A.1 aminoacylation ribozyme variant] | 1.37 | – | 1.76 | 1.81 | 1.99
36 | AAGUAUGCUAAUCGUCGCAAG [Fam3.1 aminoacylation ribozyme variant] | 1.56 | – | 1.81 | 1.71 | 1.37
37 | AUUACCCAGCUCAUCGAGUGA [Fam2.1 aminoacylation ribozyme variant] | 1.56 | – | 1.47 | 1.54 | 1.52
38 | CUACACUUCAAGCAAUCGGUC [Fam1B.1 aminoacylation ribozyme variant] | 1.13 | – | 1 | 0.989 | 1.52
39 | CGACACUUAAAGCAAUCGGUC [Fam1B.1 aminoacylation ribozyme variant] | 0.95 | – | 0.886 | 0.956 | 0.849
40 | CUAAUUCAAACAAUCGGUCUC [Fam1A.1 aminoacylation ribozyme variant] | 0.781 | – | 0.884 | 0.687 | 0.757

Row | Sequence | self-aminoacylation (biotinyl-Val-oxazolone) | self-aminoacylation (biotinyl-Trp-oxazolone) | self-aminoacylation (biotinyl-Ile-oxazolone) | self-aminoacylation (biotinyl-Met-oxazolone) | self-aminoacylation (biotinyl-Leu-oxazolone)
41 | AUUACCCUGGCCAUCGAGUAA [Fam2.1 aminoacylation ribozyme variant] | 1.46 | – | 1.14 | 1.46 | 1.87
42 | AUUACCUUGGUCAUCGGGUGA [Fam2.1 aminoacylation ribozyme variant] | 6.05 | – | 5.69 | 9.54 | 10.6
43 | AUUACUCUCGUCAUCGAGUGA [Fam2.1 aminoacylation ribozyme variant] | 2.09 | – | 2.11 | 2.92 | 3.39
44 | AUACUUCAAACAAUCGGUCUU [Fam1A.1 aminoacylation ribozyme variant] | 0.813 | – | 0.87 | 0.754 | 1.07
45 | AAGUUUGCUAAUGGUCGCAAA [Fam3.1 aminoacylation ribozyme variant] | 1.19 | – | 1.39 | 1.24 | 1.25
46 | AUUACCGUGGUCAUCAAGUGA [Fam2.1 aminoacylation ribozyme variant] | 1.99 | – | 1.95 | 2.83 | 3.05
47 | AAUACCCUGGUCAUCGAGUGC [Fam2.1 aminoacylation ribozyme variant] | 1.3 | – | 1.02 | 1.19 | 1.55
48 | AAGUUUACUAAUAGUCGCAAU [Fam3.1 aminoacylation ribozyme variant] | 1.6 | – | 1.86 | 1.48 | 1.42
49 | CCACACUUCAAGCAGUCGGCC [Fam1B.1 aminoacylation ribozyme variant] | – | 1.97 | 1.76 | – | –
50 | AAGUUUGCUAAUAGUCGCCGG [Fam3.1 aminoacylation ribozyme variant] | 4.14 | – | 3.08 | 5.01 | 3.53
51 | ACACACUUCAAGUAAUCGGUC [Fam1B.1 aminoacylation ribozyme variant] | 1.23 | – | 1.56 | 1.34 | 1.68
52 | AUUCACAUAAGUCAUCGGGUG [Fam2.2 aminoacylation ribozyme variant] | 6.79 | – | 7.61 | 11.8 | 18.3
53 | AUUCACCUCGGUCAUCGGGCG [Fam2.2 aminoacylation ribozyme variant] | 3.43 | – | 2.49 | 3.37 | 3.62
54 | CUACUUCAAAUAAUCGGUUUG [Fam1A.1 aminoacylation ribozyme variant] | 0.736 | – | 0.888 | 0.771 | 0.874
55 | CUUCUUCAAACAAUCGGUCCG [Fam1A.1 aminoacylation ribozyme variant] | 0.648 | – | 0.591 | 0.777 | 0.627
56 | AUUCCUCUAGGUCAUCGGGUG [Fam2.2 aminoacylation ribozyme variant] | 10.5 | – | 10.4 | 16.6 | 23.7
57 | AUUCACCUAUUUCAUCGGGUG [Fam2.2 aminoacylation ribozyme variant] | 2.02 | – | 1.85 | 2.93 | 3.49
58 | CUGCCUCAAACAAUCGGUCUG [Fam1A.1 aminoacylation ribozyme variant] | 1.18 | – | 0.97 | 1.29 | 1.83
59 | CUGCUACAAACAAUCGGUCUG [Fam1A.1 aminoacylation ribozyme variant] | 0.995 | – | 0.891 | 0.841 | 0.756
